# Reference: patent US9884122B2, “Small molecule drug conjugates” (Philochem AG, priority 2014, dated 2018)
# Not every detail of the peptide structures is certain; ends, links or a residue may be inferred. For some of these results: At least one structure is not confirmed: it was looked up by name or label, or the drawing left a doubt.
# Experiments:
# [1] = tested on: CAIX expressing SKRC52 cells; experiment: Ligand binding analysis by flow cytometry, SKRC52; assay type: cell-based, human
# Protocol: Cells were detached from culture plates using a 50 mM EDTA solution in phosphate buffered saline (PBS) pH 7.4, counted and suspended to a final concentration of 1.5×10^6 cells mL^−1 in a 1% v/v solution of FCS in PBS pH 7.4. Aliquots of 3×10^5 cells (200 μL) were spun down and resuspended in solutions of IRDye750 (Licor) labeled ligands (30 nM) in a 1% v/v solution of FCS in PBS pH 7.4 (200 μL) and incubated on ice for 1 h. Cells were washed once with 200 μL 1% v/v solution of FCS in PBS pH 7.4 (200 μL), spun down, resuspended in 1% v/v solution of FCS in PBS pH 7.4 (300 μL) and analyzed on a FACS Canto flow cytometer (BD Bioscience). FlowJo Version 8.7 (Treestar) was used for data analysis and visualization. Results were as follows: • (1) Flow cytometry analysis of binding of ligand-IRDye750 conjugates 1c-6c (FIG. 1) to CAIX expressing SKRC52 cells.
# Flow cytometry was performed as described above with monovalent and bivalent near infrared dye conjugates B3 and B4 and negative control conjugates lacking the ligand on CAIX-positive SKRC52 cells and CAIX-negative HEK cells^5.
# [2] = tested on: SK-RC-52 human kidney cancer cells; experiment: Ligand binding analysis by flow cytometry (part C); assay type: cell-based; conditions: 30 nM, 4° C., 1 h
# [3] = tested on: subcutaneous SK-RC-52 tumors; experiment: IVIS imaging of C1c, C5c and C6; assay type: in vivo, mouse; conditions: 3 nmol intravenous
SMILES,binding to cells by flow cytometry ([1]; CAIX-positive SKRC52 versus CAIX-negative HEK cells and controls lacking the ligand),shift in fluorescence intensity ([1]; bivalent versus monovalent),staining of cells by flow cytometry [2],tumor targeting by IVIS imaging [3]
CC1(C)C(/C=C/C2=C(c3ccc(CCCCC(=O)NCCOCCOCCNC(=O)[C@H](CCCCNC(=O)[C@H](CC(=O)O)NC(=O)[C@H](CC(=O)O)NC(=O)CCCCn4cc(CCCC(=O)Nc5nnc(S(N)(=O)=O)s5)nn4)NC(=O)[C@H](CC(=O)O)NC(=O)[C@H](CC(=O)O)NC(=O)CCCCn4cc(CCCC(=O)Nc5nnc(S(N)(=O)=O)s5)nn4)cc3)C(=C/C=C3/N(CCCCS(=O)(=O)O)c4ccc(S(=O)(=O)O)cc4C3(C)C)/CCC2)=[N+](CCCCS(=O)(=O)[O-])c2ccc(S(=O)(=O)O)cc21 [Compound B4],clear ligand- and receptor-dependent binding to cells,more pronounced than the one observed for monovalent B3,–,–
CC1(C)C(/C=C/C2=C(c3ccc(CCCCC(=O)NCCOCCOCCNC(=O)[C@H](CCCCn4cc(CCCC(=O)Nc5nnc(S(N)(=O)=O)s5)nn4)NC(=O)C[C@H](NC(=O)C[C@H](NC(=O)CCC(C)(c4ccc(O)cc4)c4ccc(O)cc4)C(=O)O)C(=O)O)cc3)C(=C/C=C3/N(CCCCS(=O)(=O)O)c4ccc(S(=O)(=O)O)cc4C3(C)C)/CCC2)=[N+](CCCCS(=O)(=O)[O-])c2ccc(S(=O)(=O)O)cc21 [Compound C5c],–,–,stained cells more strongly than the corresponding IRDye 750 labeled acetazolamide control C1a,exhibited a selective and long-lasting tumor targeting
